The other results are listed elsewhere or left out. The main result of the screen is listed elsewhere. These columns were measured beside it and carry no call. Compounds called inactive in the main read-out are mostly missing here. Words in brackets tell the shape of the fitted curve; partial curves, single points and poor fits give uncertain potencies.

One may read the AC50 as the concentration giving half of the maximal activity seen.

The experiment in a line: IkB Signaling. Particulars: ABC-DLBCL IkBa-CBG/CBR dual luciferase ratio (green luciferase fused to IkBa over red control in OCI-Ly3 lymphoma cells), 4 h; measured here: control luc red channel unless noted. The method, boiled down: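 Curves were fitted separately to fusion (green), unfused (red) and ratio luminescence, then classed by r2, magnitude and activity. Cells: OCI-Ly3, 4 h compound plus doxycycline at 37C; 10 uM MG-132 defined full response.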
With `CCOc1ccc(NC(=O)CSc2oc(-c3ccco3)nc2S(=O)(=O)c2ccccc2)cc1`, the AC50 was 12.6 µM [falling, partial curve].
The figure for `Cc1ccc(NC(=O)c2oc3ccc(S(=O)(=O)N(C)C4CCCCC4)cc3c2C)c(C)c1` is 7.94 µM [falling, full curve]; for `COc1ccc(-c2nc(C)c(CCNC(=O)c3ccc(C(F)(F)F)cc3)s2)cc1OC` it is 2 µM [rising, partial curve]; for `O=C(NCCc1ccc(Cl)cc1)c1ccc(Nc2nc3ccccc3n3nnnc23)cc1` it is 7.94 µM [falling, full curve].
The figure for `O=C(Nc1nc2ccccc2n1CCOc1ccccc1)c1ccco1` is 15.8 µM [rising, partial curve] [measured here: IkB-luc green channel]; for `Cc1cccc(NC(=O)C(=O)NCCCN2CCOCC2)c1` it is 12.6 µM [falling, partial curve, poor fit].
For the molecule `COc1ccc(NC(=O)c2nc(SCc3ccc(F)cc3)ncc2Cl)cc1`, the AC50 is 15.8 µM [falling, partial curve].
The figure for `Cc1ccccc1Nc1c(-c2ccc(N3CCOCC3)cc2)nc2cccc(C)n12` is 25.1 µM [falling, partial curve]; for `CCOc1ccccc1CNC(=O)c1ccc2nc(N3CCC(C)CC3)sc2c1` it is 15.8 µM [falling, partial curve].
Turning to `C=CCSc1nnc(NC(=O)CSc2nc(CCC)cc(=O)[nH]2)s1`, the AC50 was 12.6 µM [falling, partial curve].
As for `Cc1ccc(-n2ncc3c(NCCc4ccc(S(N)(=O)=O)cc4)ncnc32)cc1`, the AC50 was 7.94 µM [falling, partial curve].
As for `O=C(Nc1ccc(NC(=O)C2CC2)cn1)c1ccccc1Cl`, the figure is 15.8 µM [falling, partial curve]; as for `CC1=C(c2ccc(C)cc2)S(=O)(=O)NC1=NCc1ccccc1Cl`, 15.8 µM [falling, partial curve]; as for `CCN(C(=O)Cn1c(=O)oc2cc(S(=O)(=O)N3CCCCCC3)ccc21)c1cccc(C)c1`, 10 µM [falling, partial curve].
The figure for `O=C(CCS(=O)(=O)c1ccc(Br)s1)Nc1cc(C(F)(F)F)cc(C(F)(F)F)c1` is 39.8 µM [falling, single point].
The figure for `CCOC(=O)c1c(C)[nH]c(C(=O)NCc2ccccc2OC)c1C` is 12.6 µM [falling, partial curve]; for `Cc1cccc(C)c1Nc1c(-c2ccccn2)nc2ccc(Cl)cn12` it is 31.6 µM [falling, single point].
Consider `COc1ccc(-c2nc(CSCC(=O)N3CCN(c4ccccc4F)CC3)c(C)o2)cc1`, for which the AC50 is 20 µM [falling, single point].
The figure for `CC(=O)N1CCN(c2ccc(Nc3nc(C)nc4c3oc3ccccc34)cc2)CC1` is 25.1 µM [falling, single point].
The figure for `COc1ccccc1-n1cnnc1SCC(=O)N1CCN(S(=O)(=O)c2ccccc2)CC1` is 0.0316 µM [falling, full curve]; for `O=C(NCc1ccccc1)NC1COc2ccccc2C1` (configuration not stated) it is 0.0316 µM [rising, full curve]; for `Cn1cc(S(=O)(=O)N2CCCCCC2)cc1C(=O)NCc1ccc(F)cc1` it is 15.8 µM [falling, partial curve, poor fit].
As for `Cc1cc(-c2ccccc2)n2nc(-c3cccc(Br)c3)cc2n1`, the figure is 3.98 µM [falling, full curve]; as for `CC1CCN(C(=O)CN2c3ccc(C(C)C)cc3-c3ccccc3S2(=O)=O)CC1`, 20 µM [falling, partial curve, poor fit].
On to `Cc1ccc(-c2c(C(=O)NCc3ccc(F)cc3)oc(=O)c3ccccc23)cc1`, for which the AC50 was 31.6 µM [falling, single point].
As for `CC(=O)c1cccc(NC(=O)c2oc(=O)c3ccccc3c2-c2ccccc2)c1`, the figure is 7.94 µM [falling, single point]; as for `N#Cc1ccccc1Sc1ccccc1C(=O)OCc1nnc(-c2ccccc2)o1`, 3.16 µM [falling, full curve, poor fit].
As for `COc1ccc(CCCc2nnc(SCC(=O)Nc3ccc(F)cc3)o2)cc1C`, the figure is 20 µM [falling, partial curve]; as for `CS(=O)(=O)N(CC(=O)NCCSCc1ccccc1)c1cc(C(F)(F)F)ccc1Cl`, 12.6 µM [falling, single point].
As for `O=C(Cn1cnc2onc(-c3ccc(F)cc3)c2c1=O)Nc1cccc(C(F)(F)F)c1`, the figure is 25.1 µM [falling, single point]; as for `CCOC(=O)c1nnn(CC(=O)Nc2cc(C)cc(C)c2)c1C(=O)OCC`, 25.1 µM [falling, partial curve]; as for `CCOC(=O)c1ccc(NC(=O)c2nc(SC(C)C)ncc2Cl)cc1`, 39.8 µM [falling, single point].
On to `C=CCn1c(SCC(O)Cn2c3ccccc3c3ccccc32)nnc1-c1ccco1` (configuration not stated), for which the AC50 is 20 µM [falling, partial curve].
As for `CCc1ccc(NC(=O)N2c3ccccc3Sc3ccccc32)cc1`, the figure is 20 µM [falling, partial curve, poor fit].
Regarding `CCN(Cc1ccccc1)S(=O)(=O)c1ccc2c(c1)CCCN2C(C)=O`, the AC50 is 20 µM [falling, single point].
As for `CCC(c1nnnn1Cc1ccc2c(c1)OCO2)N1CCN(c2ccc(F)cc2)CC1` (configuration not stated), the figure is 31.6 µM [falling, single point]; as for `C#C[C@]1(O)CC[C@H]2[C@H]3CCC4=Cc5oncc5C[C@]4(C)[C@@H]3CC[C@]21C`, 12.6 µM [falling, partial curve].
Consider `Cc1ccc(Cn2nnc3c(=O)[nH]c(C4CCN(S(=O)(=O)c5ccc(F)cc5)CC4)nc32)cc1`, for which the concentration at half-maximal activity (AC50) was 7.94 µM [falling, full curve].
As for `O=C(NCCc1csc(-c2cccc(F)c2)n1)c1ccccc1C(F)(F)F`, the figure is 25.1 µM [falling, partial curve, poor fit].
The figure for `CCc1nn(-c2ccccc2)c2nc(-c3ccc(O)cc3)c3cc(OC)c(OC)cc3c12` is 7.94 µM [falling, partial curve].
As for `Cc1cccc(-c2nc(CN3CCCC(C(=O)NCc4ccc(Cl)cc4)C3)c(C)o2)c1` (configuration not stated), the figure is 20 µM [falling, partial curve]; as for `O=C(NCc1ccc(F)cc1)C1CCCCN1S(=O)(=O)c1ccc(F)cc1` (configuration not stated), 39.8 µM [falling, partial curve].
As to `Cc1cc(C)cc(NC(=O)c2oc3ccc4c(c3c2C)C(=O)CC(C)(C)O4)c1`, the half-maximal activity concentration (AC50) was 2 µM [falling, partial curve].
As for `N=c1n(CCN2CCCCC2)c2ccccc2n1CC(O)COc1ccccc1` (configuration not stated), the figure is 20 µM [falling, partial curve]; as for `Cc1ccc(C)c(N2CCN(C(=O)c3ccc(Nc4nc5ccccc5n5nnnc45)cc3)CC2)c1`, 5.01 µM [falling, full curve]; as for `CCOC(=O)c1cc(C)n(CC2CCC(C(=O)Nc3ccc(C)cc3)CC2)c1C` (configuration not stated), 15.8 µM [falling, partial curve, poor fit].
`Cc1cccc(C)c1NC(=O)CN(Cc1ccc(Br)cc1)S(=O)(=O)c1ccccc1`: the concentration at half-maximal activity (AC50) was 15.8 µM [falling, partial curve].
The figure for `CCOC(=O)c1ccc(NS(=O)(=O)c2ccc3c(c2)OCCO3)cc1` is 31.6 µM [falling, single point]; for `O=C(Nc1ccc(Cl)c(C(F)(F)F)c1)c1ccc2c(c1)CCN2S(=O)(=O)c1ccccc1` it is 0.158 µM [rising, full curve].
The figure for `CC(=O)Nc1nc(C)c(-c2csc(Nc3ccc(O)cc3)n2)s1` is 25.1 µM [falling, partial curve]; for `Cc1ccccc1Cn1nnc2c(=O)[nH]c(C3CCN(C(=O)c4ccccc4Cl)CC3)nc21` it is 39.8 µM [falling, single point]; for `Cc1ccc(-n2ncc(C(=O)NCc3ccccn3)c2C2CCN(C(=O)OC(C)(C)C)CC2)c(C)c1` it is 12.6 µM [falling, partial curve].
The figure for `CCC1CN(C(=O)NCc2ccccc2)c2cc(C)ccc2O1` (configuration not stated) is 10 µM [falling, partial curve]; for `CCOC(=O)c1cc2c(=O)n3ccccc3nc2n(C)c1=NC(=O)c1c(-c2ccccc2Cl)noc1C` it is 15.8 µM [falling, partial curve, poor fit].
For the molecule `O=C(Nc1ccc(F)cc1F)c1ccc2c(c1)CCN2S(=O)(=O)c1ccc(Cl)cc1`, the AC50 is 20 µM [falling, single point].
Consider `CN1C(=O)CC(C(=O)Nc2ccc(F)cc2)SC1=Nc1ccc2c(c1)OCO2` (configuration not stated), for which the AC50 is 25.1 µM [falling, single point].
As for `COc1ccc2oc(=O)c(C(=O)Nc3cccc(C(=O)O)c3)cc2c1`, the figure is 1.26 µM [falling, full curve]; as for `CC(C)(c1cc(Br)c(O)c(Br)c1)c1cc(Br)c(O)c(Br)c1`, 39.8 µM [rising, single point] [measured here: IkB-luc green channel]; as for `CCN(CC)S(=O)(=O)c1cc(C(=O)OCC(=O)c2ccc3c(c2)NC(=O)CO3)ccc1F`, 20 µM [falling, partial curve].
For the molecule `COc1cc(-c2cc3n(C)c(C)c(CCC(=O)NCc4ccccc4)c(=O)n3n2)cc(OC)c1OC`, the AC50 is 31.6 µM [falling, single point].
As for `COc1ccc(OC)c(CCNC(=O)Cn2ccc3cc(S(=O)(=O)N4CCCCC4)ccc32)c1`, the figure is 31.6 µM [falling, partial curve].
As for `CCOC(=O)c1cc(OC(=O)c2ccc(OC)cc2)n(-c2ccccc2)n1`, the figure is 39.8 µM [falling, single point].

These data come from PubChem BioAssay AID445 (National Center for Advancing Translational Sciences (NCATS), 2006).
